This passage reports binding results from paper PMC8812845.

Sequences of proteins named here, by UniProt entry; tags and fusion partners are left off.
UniProt Q9UKA9: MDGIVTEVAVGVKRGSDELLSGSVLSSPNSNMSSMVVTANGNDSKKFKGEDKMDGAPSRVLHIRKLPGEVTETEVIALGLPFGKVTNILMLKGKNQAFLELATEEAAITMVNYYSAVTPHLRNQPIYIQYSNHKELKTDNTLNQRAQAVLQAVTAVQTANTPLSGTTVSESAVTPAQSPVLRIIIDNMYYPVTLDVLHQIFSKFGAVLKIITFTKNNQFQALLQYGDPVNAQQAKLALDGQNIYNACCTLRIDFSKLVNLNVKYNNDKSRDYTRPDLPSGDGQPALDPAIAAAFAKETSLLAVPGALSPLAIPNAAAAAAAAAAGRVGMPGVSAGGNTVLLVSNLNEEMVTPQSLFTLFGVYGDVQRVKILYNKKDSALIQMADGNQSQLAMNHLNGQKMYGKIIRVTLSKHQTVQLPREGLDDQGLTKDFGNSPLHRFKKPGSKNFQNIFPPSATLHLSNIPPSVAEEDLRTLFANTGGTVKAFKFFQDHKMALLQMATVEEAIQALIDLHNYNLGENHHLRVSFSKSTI

No constants are given. Whether binding was seen depends on the method and setting. In cells and extracts the contact can be indirect. A yes stands for co-enrichment or nearness to the bait. Other partners may have been found.

First the molecules themselves.
B1: Serine–Arginine related protein 53 (protein, UniProt Q96IZ7 1-334)
chain: MGRRSSDTEEESRSKRKKKHRRRSSSSSSSDSRTYSRKKGGRKSRSKSRSWSRDLQPRSHSYDRRRRHRSSSSSSYGSRRKRSRSRSRGRGKSYRVQRSRSKSRTRRSRSRPRLRSHSRSSERSSHRRTRSRSRDRERRKGRDKEKREKEKDKGKDKELHNIKRGESGNIKAGLEHLPPAEQAKARLQLVLEAAAKADEALKAKERNEEEAKRRKEEDQATLVEQVKRVKEIEAIESDSFVQQTFRSSKEVKKSVEPSEVKQATSTSGPASAVADPPSTEKEIDPTSIPTAIKYQDDNSLAHPNLFIEKADAEEKWFKRLIALRQERLMGSPVA
B2: RBM33 (protein, UniProt Q96EV2 1-1170)
chain: MAAALGASGGAGAGDDDFDQFDKPGAERSWRRRAADEDWDSELEDDLLGEDLLSGKKNQSDLSDEELNDDLLQSDNEDEENFSSQGVTISLNATSGMVTSFELSDNTNDQSGEQESEYEQEQGEDELVYHKSDGSELYTQEYPEEGQYEGHEAELTEDQIEYVEEPEEEQLYTDEVLDIEINEPLDEFTGGMETLELQKDIKEESDEEEEDDEESGRLRFKTERKEGTIIRLSDVTRERRNIPETLELSAEAKAALLEFEERERQHKQGRYSSRRGGRRGGPLMCRGVGDQRRESTERGRMKDHRPALLPTQPPVVPQAPPPPPPPPQQQPIRSLFQPQPLQPLLPVQHPHHPSPPQGMHMPPQLETPRMMMTPPPVTPQQPKNIHINPHFKGTVVTPVQVPLLPVPSQPRPAVGPQRFPGPPEFPQHTPGPVPNSFSQPPRLPLQDQWRAPPPPQDRDPFFLGVSGEPRFPSHLFLEQRSPPPPPPPPTLLNSSHPVPTQSPLPFTQPGPAFNQQGQQPVFPRERPVRPALQPPGPVGILHFSQPGSATTRPFIPPRQPFLPGPGQPFLPTHTQPNLQGPLHPPLPPPHQPQPQQPQQQPPPQHQPPHQPPHQPPPQHQPPPQHPPQHPPQHQHHHHHHHLSVPPPPLMPMSQPQFRPHVQTAQPQASSSRMQCPQRQGLRHNTTSQNVSKRPMQQMQPTAPRNSNLRELPIAPSHVIEMSSSRCSATPSAQVKPIVSASPPSRAVAGSRSSQGKTEVKVKPASPVAQPKEEAKTETEFPDEDEETRLYRLKIEEQKRLREEILKQKELRRQQQAGARKKELLERLAQQQQQLYAPPPPAEQEEQALSPSPTNGNPLLPFPGAQVRQNVKNRLLVKNQDVSISNVQPKTSNFVPSSANMQYQGQQMKALKHLRQTRTVPQSQTQPLHKVLPIKPADVEEPAVPQTPRVASIQGRPQDTKPGVKRTVTHRTNSGGGDGPHISSKVRVIKLSGGGGESDGFFHPEGQPQRLPQPPEVGPQPARKVTLTRGGLQQPPHLPAGPHAHSPVPPGIKSIQGIHPAKKAIMHGRGRGVAGPMGRGRLMPNKQNLRVVECKPQPCVVSVEGLSSSTTDAQLKSLLMSVGPIQSLQMLPQQRKAIAKFKEPAHALAFQQKFHRHMIDLSHINVALIVE
B3: ubiquitin carboxyl terminal hydrolase USP4 (protein, UniProt Q13107 1-963)
chain: MAEGGGCRERPDAETQKSELGPLMRTTLQRGAQWYLIDSRWFKQWKKYVGFDSWDMYNVGEHNLFPGPIDNSGLFSDPESQTLKEHLIDELDYVLVPTEAWNKLLNWYGCVEGQQPIVRKVVEHGLFVKHCKVEVYLLELKLCENSDPTNVLSCHFSKADTIATIEKEMRKLFNIPAERETRLWNKYMSNTYEQLSKLDNTVQDAGLYQGQVLVIEPQNEDGTWPRQTLQSKSSTAPSRNFTTSPKSSASPYSSVSASLIANGDSTSTCGMHSSGVSRGGSGFSASYNCQEPPSSHIQPGLCGLGNLGNTCFMNSALQCLSNTAPLTDYFLKDEYEAEINRDNPLGMKGEIAEAYAELIKQMWSGRDAHVAPRMFKTQVGRFAPQFSGYQQQDSQELLAFLLDGLHEDLNRVKKKPYLELKDANGRPDAVVAKEAWENHRLRNDSVIVDTFHGLFKSTLVCPECAKVSVTFDPFCYLTLPLPLKKDRVMEVFLVPADPHCRPTQYRVTVPLMGAVSDLCEALSRLSGIAAENMVVADVYNHRFHKIFQMDEGLNHIMPRDDIFVYEVCSTSVDGSECVTLPVYFRERKSRPSSTSSASALYGQPLLLSVPKHKLTLESLYQAVCDRISRYVKQPLPDEFGSSPLEPGACNGSRNSCEGEDEEEMEHQEEGKEQLSETEGSGEDEPGNDPSETTQKKIKGQPCPKRLFTFSLVNSYGTADINSLAADGKLLKLNSRSTLAMDWDSETRRLYYDEQESEAYEKHVSMLQPQKKKKTTVALRDCIELFTTMETLGEHDPWYCPNCKKHQQATKKFDLWSLPKILVVHLKRFSYNRYWRDKLDTVVEFPIRGLNMSEFVCNLSARPYVYDLIAVSNHYGAMGVGHYTAYAKNKLNGKWYYFDDSNVSLASEDQIVTKAAYVLFYQRRDDEFYKTPSLSSSGSSDGGTRPSSSQQGFGDDEACSMDTN
B4: CHRC1 (protein, UniProt Q9NRG0 1-131)
chain: MADVVVGKDKGGEQRLISLPLSRIRVIMKSSPEVSSINQEALVLTAKATELFVQCLATYSYRHGSGKEKKVLTYSDLANTAQQSETFQFLADILPKKILASKYLKMLKEEKREEDEENDNDNESDHDEADS
B5: SNRNP27 (protein, UniProt Q8WVK2 1-155)
chain: MGRSRSRSPRRERRRSRSTSRERERRRRERSRSRERDRRRSRSRSPHRRRSRSPRRHRSTSPSPSRLKERRDEEKKETKETKSKERQITEEDLEGKTEEEIEMMKLMGFASFDSTKGKKVDGSVNAYAINVSQKRKYRQYMNRKGGFNRPLDFIA
B6: OLIG2 (protein, UniProt Q13516 1-323)
chain: MDSDASLVSSRPSSPEPDDLFLPARSKGSSGSAFTGGTVSSSTPSDCPPELSAELRGAMGSAGAHPGDKLGGSGFKSSSSSTSSSTSSAAASSTKKDKKQMTEPELQQLRLKINSRERKRMHDLNIAMDGLREVMPYAHGPSVRKLSKIATLLLARNYILMLTNSLEEMKRLVSEIYGGHHAGFHPSACGGLAHSAPLPAATAHPAAAAHAAHHPAVHHPILPPAAAAAAAAAAAAAVSSASLPGSGLPSVGSIRPPHGLLKSPSAAAAAPLGGGGGGSGASGGFQHWGGMPCPCSMCQVPPPHHHVSAMGAGSLPRLTSDAK
B7: PSPC1 (protein, UniProt Q8WXF1 1-523)
chain: MMLRGNLKQVRIEKNPARLRALESAVGESEPAAAAAMALALAGEPAPPAPAPPEDHPDEEMGFTIDIKSFLKPGEKTYTQRCRLFVGNLPTDITEEDFKRLFERYGEPSEVFINRDRGFGFIRLESRTLAEIAKAELDGTILKSRPLRIRFATHGAALTVKNLSPVVSNELLEQAFSQFGPVEKAVVVVDDRGRATGKGFVEFAAKPPARKALERCGDGAFLLTTTPRPVIVEPMEQFDDEDGLPEKLMQKTQQYHKEREQPPRFAQPGTFEFEYASRWKALDEMEKQQREQVDRNIREAKEKLEAEMEAARHEHQLMLMRQDLMRRQEELRRLEELRNQELQKRKQIQLRHEEEHRRREEEMIRHREQEELRRQQEGFKPNYMENREQEMRMGDMGPRGAINMGDAFSPAPAGNQGPPPMMGMNMNNRATIPGPPMGPGPAMGPEGAANMGTPMMPDNGAVHNDRFPQGPPSQMGSPMGSRTGSETPQAPMSGVGPVSGGPGGFGRGSQGGNFEGPNKRRRY
B8: RYBP (protein, UniProt Q8N488 1-228)
chain: MTMGDKKSPTRPKRQAKPAADEGFWDCSVCTFRNSAEAFKCSICDVRKGTSTRKPRINSQLVAQQVAQQYATPPPPKKEKKEKVEKQDKEKPEKDKEISPSVTKKNTNKKTKPKSDILKDPPSEANSIQSANATTKTSETNHTSRPRLKNVDRSTAQQLAVTVGNVTVIITDFKEKTRSSSTSSSTVTSSAGSEQQNQSSSGSESTDKGSSRSSTPKGDMSAVNDESF

The target in one test is His6-tagged PTBP1 (human). The test is described as follows: affinity purification with mass spectrometry; 48 ug His6-PTBP incubated in 200 ul splicing reaction (2.2 mM MgCl2, 0.4 mM ATP, 20 mM creatine phosphate, HeLa nuclear extract) at 30°C for 90 min; captured on HisPur Ni-NTA magnetic resin overnight at 4°C, washed (150 mM NaCl, 30 mM imidazole), eluted with 300 mM imidazole; LC-MS/MS; proteins of the Buffer DG and HeLa only controls and common contaminants removed; only the target purified.
In the case of B1, the binding result is “binds”.
Take B2: the binding entry is “binds”.
For the molecule B3, the binding entry is recorded as “binds”.
Turning to B4, the binding entry is “binds”.
On the same count and under the same terms, under B5 stands “binds”.
As for B6, the binding result is “binds”.
Same read-out and setting: for B7 the value was “binds”; for B8, “binds”.

Another test concerns the target His6-tagged PTBP2 (human) (UniProt Q9UKA9). The test is described as above.
For B2, the binding entry is on record as “binds”.
On the same count and under the same terms, under B4 stands “binds”.
